PubChem BioAssay AID743121 – NCATS, 2013
The deposit covers about 26,000 reagents; below is a part drawn at random. In the full data, 167 (0.63%) were called active. 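Calls are per gene from RSA p-values that are not deposited; an individual active-marked siRNA can sensitise only weakly.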 A number with no mark means an inactive call. The numbers tell different reagents against one gene apart. Reagent sequences are not shown.

Test: 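Genes whose silencing strengthens cell killing by camptothecin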 (primary screen)
System: MDA-MB-231 cells, a human breast cancer line
Reagent: single siRNA against human genes, 20 nM siRNA (0.8 pmol per well)
Timing: 120 h (drug added 48 h after transfection, read 72 h later)
Treatment: camptothecin 20 nM (about EC30) for 72 h; vehicle 0.1% DMSO in parallel plates
Read-out: 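CellTiter-Glo ATP signal, scaled to control siRNA as percent viability; sensitisation given as log2 of untreated divided by camptothecin-treated viability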
Direction: log2 vehicle/camptothecin viability: higher = stronger sensitisation to camptothecin; viability with camptothecin and viability without drug: higher = more viable cells
Rule for the call: 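Each gene scored by redundant siRNA activity (RSA) over its individual siRNA ratios; a gene is called active at p < 0.001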

The opening 2 entries, to show the layout:
no.	Gene	reagent	log2 vehicle/camptothecin viability	viability with camptothecin (% of control)	viability without drug (% of control)
1	MND1	1	-0.0118	56.2	55.7
2	MND1	2	-0.0745	96.7	91.8

The listing, from the first entry:
no.	Gene	reagent	log2 vehicle/camptothecin viability	viability with camptothecin (% of control)	viability without drug (% of control)
1	MND1	1	-0.0118	56.2	55.7
2	MND1	2	-0.0745	96.7	91.8
3	MND1	3	-0.3	82.4	66.9
4	MND1	4	0.0914	79.4	84.6
5	ERCC1	1	0.0476	27	27.9
6	ERCC1	2	-0.239	108	91.3
7	ERCC1	3	-0.0689	104	98.7
8	ERCC1	4	0.492	49.3	69.4
9	OLFML2A	1	-0.143	63.9	57.9
10	OLFML2A	2	-0.132	70.7	64.5
11	OLFML2A	3	-0.0847	56.9	53.6
12	OLFML2A	4	0.0216	69.7	70.7
13	NLGN4Y	1	-0.376	67.1	51.8
14	NLGN4Y	2	-0.368	97.1	75.2
15	NLGN4Y	3	-0.379	83.8	64.5
16	NLGN4Y	4	-0.369	81.6	63.2
17	PALS2	1	-0.354	93.5	73.2
18	PALS2	2	-0.38	58.8	45.2
19	PALS2	3	-0.09	88.1	82.7
20	PALS2	4	-0.338	84.8	67.1
21	LTA4H	1	0.13	68.1	74.6
22	LTA4H	2	-0.645	100	64
23	LTA4H	3	0.0655	94.1	98.5
24	LTA4H	4	-0.345	94.1	74.1
25	CD96	1	-0.36	64.1	50
26	CD96	2	-0.393	124	94.2
27	CD96	3	-0.187	108	95
28	CD96	4	0.178	73.1	82.7
29	MRGPRD	1	-0.495	85.9	61
30	MRGPRD	2	-0.613	40.9	26.7
31	MRGPRD	3	-0.198	103	89.8
32	MRGPRD	4	-0.303	71.3	57.8
33	RAB33B	1	-0.544	103	70.7
34	RAB33B	2	-0.0243	56.4	55.4
35	RAB33B	3	0.102	54.6	58.6
36	HCN2	1	-0.154	80.6	72.5
37	HCN2	2	-0.075	49.8	47.3
38	HCN2	3	-0.204	80.7	70.1
39	HCN2	4	-0.0947	38.9	36.5
40	SMAD5	1	-0.046	97.5	94.4
41	SMAD5	2	-0.555	40.2	27.4
42	SMAD5	3	-0.667	18.2	11.5
43	SMAD5	4	-0.647	92.2	58.9
44	SPRY2	1	-0.652	43.2	27.5
45	SPRY2	2	-0.403	67.2	50.8
46	SPRY2	3	-0.0732	57.3	54.5
47	SPRY2	4	0.0504	70.4	72.9
